Source: the supplement of paper PMC10849652
The other results are listed elsewhere or left out.

The chains behind the UniProt entries cited, without tags or fusion partners. Where a name states a change or a piece, a line headed by the entry shows the natural chain unless it says otherwise.
UniProt Q02880: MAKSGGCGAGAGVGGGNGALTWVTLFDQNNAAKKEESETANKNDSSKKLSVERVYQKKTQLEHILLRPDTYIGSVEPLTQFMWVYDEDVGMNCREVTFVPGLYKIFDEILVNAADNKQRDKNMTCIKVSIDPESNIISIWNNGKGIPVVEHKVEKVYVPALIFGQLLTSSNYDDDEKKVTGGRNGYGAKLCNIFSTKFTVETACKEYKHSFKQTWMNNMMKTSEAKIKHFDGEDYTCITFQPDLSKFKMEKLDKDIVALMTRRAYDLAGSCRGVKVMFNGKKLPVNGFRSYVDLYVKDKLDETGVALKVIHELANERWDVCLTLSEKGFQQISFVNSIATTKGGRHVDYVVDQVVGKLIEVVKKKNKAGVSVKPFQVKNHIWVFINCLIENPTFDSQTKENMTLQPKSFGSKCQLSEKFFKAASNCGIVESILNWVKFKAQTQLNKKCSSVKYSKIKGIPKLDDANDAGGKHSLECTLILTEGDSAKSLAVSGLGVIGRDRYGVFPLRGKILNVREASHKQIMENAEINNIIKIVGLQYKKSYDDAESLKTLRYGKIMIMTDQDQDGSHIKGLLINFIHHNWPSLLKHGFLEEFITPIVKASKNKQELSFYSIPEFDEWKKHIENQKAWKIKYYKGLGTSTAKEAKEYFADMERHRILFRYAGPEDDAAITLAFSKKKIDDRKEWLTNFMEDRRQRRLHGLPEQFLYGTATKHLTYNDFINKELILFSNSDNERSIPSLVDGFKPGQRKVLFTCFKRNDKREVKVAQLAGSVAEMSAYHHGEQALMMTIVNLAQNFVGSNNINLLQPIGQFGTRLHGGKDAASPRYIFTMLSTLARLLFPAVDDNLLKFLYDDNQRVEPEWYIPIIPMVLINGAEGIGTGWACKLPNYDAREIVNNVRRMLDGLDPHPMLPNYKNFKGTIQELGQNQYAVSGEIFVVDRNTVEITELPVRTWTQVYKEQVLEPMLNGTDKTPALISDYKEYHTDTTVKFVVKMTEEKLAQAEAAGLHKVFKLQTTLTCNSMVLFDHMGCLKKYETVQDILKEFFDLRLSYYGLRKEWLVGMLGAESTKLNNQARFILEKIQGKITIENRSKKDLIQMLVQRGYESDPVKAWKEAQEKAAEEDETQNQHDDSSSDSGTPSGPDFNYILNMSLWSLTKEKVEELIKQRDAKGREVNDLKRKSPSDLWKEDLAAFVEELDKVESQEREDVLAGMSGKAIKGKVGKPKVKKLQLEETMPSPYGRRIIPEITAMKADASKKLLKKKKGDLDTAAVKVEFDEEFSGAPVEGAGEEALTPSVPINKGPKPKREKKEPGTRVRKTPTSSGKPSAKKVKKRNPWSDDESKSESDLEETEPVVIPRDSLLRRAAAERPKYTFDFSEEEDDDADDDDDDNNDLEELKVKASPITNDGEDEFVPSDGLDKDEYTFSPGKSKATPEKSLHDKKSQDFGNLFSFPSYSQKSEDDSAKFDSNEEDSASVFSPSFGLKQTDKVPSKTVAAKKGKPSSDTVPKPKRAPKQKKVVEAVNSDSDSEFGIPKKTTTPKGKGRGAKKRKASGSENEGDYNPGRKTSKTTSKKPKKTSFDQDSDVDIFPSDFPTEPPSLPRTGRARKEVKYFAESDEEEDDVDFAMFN
UniProt P09493, whole entry, looked up: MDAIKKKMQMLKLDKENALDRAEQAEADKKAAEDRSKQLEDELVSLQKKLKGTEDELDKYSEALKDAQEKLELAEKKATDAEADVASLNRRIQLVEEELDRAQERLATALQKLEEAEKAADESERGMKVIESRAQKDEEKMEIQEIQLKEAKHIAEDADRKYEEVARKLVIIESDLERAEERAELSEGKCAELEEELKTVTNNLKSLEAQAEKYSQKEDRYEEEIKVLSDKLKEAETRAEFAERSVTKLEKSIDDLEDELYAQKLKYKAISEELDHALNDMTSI
UniProt Q9H496: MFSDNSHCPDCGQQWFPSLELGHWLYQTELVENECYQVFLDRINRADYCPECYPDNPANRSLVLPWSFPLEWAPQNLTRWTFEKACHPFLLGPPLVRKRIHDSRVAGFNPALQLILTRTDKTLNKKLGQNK
UniProt Q15643: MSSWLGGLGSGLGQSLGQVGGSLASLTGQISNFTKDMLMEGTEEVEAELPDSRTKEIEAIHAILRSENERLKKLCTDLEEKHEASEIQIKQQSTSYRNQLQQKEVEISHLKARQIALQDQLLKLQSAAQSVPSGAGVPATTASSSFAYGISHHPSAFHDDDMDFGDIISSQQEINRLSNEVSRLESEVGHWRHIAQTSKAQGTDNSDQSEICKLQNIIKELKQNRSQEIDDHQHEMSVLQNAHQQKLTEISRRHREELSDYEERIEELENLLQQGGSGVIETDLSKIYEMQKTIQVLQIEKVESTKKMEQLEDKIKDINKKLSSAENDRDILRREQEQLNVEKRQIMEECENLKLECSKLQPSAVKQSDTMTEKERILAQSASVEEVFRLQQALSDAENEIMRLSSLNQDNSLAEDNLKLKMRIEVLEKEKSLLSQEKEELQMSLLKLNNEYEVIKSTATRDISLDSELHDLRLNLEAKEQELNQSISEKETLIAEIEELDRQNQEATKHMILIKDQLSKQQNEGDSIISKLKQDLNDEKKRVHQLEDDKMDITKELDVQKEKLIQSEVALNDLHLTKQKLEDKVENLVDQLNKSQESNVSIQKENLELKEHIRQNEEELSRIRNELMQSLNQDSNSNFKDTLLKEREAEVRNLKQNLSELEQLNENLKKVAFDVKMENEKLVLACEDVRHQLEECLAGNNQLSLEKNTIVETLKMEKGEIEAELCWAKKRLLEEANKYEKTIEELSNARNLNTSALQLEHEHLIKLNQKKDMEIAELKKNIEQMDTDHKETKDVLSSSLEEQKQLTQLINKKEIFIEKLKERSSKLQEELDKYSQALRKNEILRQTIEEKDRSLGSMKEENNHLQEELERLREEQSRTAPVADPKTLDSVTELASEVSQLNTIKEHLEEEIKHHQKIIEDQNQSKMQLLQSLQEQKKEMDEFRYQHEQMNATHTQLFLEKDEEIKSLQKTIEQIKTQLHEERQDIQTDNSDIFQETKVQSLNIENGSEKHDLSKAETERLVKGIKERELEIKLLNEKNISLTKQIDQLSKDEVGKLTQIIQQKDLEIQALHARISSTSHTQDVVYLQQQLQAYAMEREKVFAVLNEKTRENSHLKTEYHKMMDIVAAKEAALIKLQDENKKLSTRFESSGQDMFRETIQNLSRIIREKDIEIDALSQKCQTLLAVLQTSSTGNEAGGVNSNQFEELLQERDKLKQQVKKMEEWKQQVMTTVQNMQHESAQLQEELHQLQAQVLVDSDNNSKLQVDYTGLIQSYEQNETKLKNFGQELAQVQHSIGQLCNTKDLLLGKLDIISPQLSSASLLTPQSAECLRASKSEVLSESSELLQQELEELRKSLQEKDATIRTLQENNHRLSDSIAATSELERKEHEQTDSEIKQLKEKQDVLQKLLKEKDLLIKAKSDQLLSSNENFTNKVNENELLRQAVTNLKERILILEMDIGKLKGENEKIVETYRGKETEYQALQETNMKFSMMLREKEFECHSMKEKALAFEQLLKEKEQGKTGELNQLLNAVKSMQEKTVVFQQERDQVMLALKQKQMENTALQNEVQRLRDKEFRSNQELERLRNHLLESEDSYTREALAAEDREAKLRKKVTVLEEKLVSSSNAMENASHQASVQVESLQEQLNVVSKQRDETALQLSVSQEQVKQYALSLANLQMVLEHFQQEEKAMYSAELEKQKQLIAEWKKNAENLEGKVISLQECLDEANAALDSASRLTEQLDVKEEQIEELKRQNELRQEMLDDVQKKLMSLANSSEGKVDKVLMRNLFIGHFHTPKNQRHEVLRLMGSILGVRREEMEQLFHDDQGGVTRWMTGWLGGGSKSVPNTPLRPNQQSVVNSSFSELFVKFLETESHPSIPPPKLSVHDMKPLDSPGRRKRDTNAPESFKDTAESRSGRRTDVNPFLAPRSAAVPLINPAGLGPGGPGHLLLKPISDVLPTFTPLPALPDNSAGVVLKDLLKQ
UniProt Q9NXH9: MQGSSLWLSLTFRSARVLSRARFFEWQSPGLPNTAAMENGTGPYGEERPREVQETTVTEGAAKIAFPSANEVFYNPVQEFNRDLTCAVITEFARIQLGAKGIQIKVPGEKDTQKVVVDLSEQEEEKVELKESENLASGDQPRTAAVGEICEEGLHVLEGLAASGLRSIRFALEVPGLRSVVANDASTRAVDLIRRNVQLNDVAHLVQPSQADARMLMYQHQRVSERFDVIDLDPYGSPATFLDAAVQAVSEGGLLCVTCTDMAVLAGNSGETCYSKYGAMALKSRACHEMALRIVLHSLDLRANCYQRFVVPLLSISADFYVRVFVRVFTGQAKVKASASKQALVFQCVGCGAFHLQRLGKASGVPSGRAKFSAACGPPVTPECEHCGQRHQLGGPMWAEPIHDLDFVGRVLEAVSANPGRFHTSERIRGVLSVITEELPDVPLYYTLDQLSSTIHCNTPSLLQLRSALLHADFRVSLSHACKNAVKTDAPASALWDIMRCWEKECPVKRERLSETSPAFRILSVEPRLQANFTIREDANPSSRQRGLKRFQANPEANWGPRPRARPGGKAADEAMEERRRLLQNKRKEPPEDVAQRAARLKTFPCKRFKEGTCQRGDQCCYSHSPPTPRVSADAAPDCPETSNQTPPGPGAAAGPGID
UniProt Q15654: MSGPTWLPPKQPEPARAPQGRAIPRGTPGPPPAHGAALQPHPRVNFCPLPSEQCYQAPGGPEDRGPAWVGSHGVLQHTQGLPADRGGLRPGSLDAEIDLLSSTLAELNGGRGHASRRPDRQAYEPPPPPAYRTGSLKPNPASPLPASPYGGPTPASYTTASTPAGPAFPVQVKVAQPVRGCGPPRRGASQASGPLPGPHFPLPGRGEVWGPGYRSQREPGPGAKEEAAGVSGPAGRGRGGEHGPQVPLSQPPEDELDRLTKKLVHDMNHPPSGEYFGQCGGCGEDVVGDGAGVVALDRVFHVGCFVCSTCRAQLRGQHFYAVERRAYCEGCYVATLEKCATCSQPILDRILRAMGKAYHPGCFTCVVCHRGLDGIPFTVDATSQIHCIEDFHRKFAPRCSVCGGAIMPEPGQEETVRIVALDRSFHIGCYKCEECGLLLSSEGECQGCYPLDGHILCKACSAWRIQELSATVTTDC
UniProt O95985: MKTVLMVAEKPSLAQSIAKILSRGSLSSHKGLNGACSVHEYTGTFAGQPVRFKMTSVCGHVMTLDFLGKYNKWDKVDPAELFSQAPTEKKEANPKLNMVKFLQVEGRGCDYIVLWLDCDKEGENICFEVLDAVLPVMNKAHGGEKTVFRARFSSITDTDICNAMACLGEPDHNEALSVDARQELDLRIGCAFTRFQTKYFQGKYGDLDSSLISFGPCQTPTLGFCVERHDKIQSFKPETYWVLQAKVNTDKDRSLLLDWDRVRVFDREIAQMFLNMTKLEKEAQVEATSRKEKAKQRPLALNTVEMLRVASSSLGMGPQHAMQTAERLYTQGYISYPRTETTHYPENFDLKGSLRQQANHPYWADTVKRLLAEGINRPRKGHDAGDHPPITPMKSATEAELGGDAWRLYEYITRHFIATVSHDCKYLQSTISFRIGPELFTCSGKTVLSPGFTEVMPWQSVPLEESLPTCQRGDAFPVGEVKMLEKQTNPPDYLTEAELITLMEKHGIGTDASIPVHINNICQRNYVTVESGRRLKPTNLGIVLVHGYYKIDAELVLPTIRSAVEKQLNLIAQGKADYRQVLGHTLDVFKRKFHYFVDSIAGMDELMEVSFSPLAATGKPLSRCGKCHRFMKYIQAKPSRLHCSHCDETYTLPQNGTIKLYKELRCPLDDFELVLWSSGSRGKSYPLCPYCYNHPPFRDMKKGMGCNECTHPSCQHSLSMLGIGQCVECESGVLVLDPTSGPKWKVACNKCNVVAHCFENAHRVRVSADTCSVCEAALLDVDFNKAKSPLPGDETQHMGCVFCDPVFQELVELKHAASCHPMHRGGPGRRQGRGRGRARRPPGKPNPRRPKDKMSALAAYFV
UniProt Q9UJA5: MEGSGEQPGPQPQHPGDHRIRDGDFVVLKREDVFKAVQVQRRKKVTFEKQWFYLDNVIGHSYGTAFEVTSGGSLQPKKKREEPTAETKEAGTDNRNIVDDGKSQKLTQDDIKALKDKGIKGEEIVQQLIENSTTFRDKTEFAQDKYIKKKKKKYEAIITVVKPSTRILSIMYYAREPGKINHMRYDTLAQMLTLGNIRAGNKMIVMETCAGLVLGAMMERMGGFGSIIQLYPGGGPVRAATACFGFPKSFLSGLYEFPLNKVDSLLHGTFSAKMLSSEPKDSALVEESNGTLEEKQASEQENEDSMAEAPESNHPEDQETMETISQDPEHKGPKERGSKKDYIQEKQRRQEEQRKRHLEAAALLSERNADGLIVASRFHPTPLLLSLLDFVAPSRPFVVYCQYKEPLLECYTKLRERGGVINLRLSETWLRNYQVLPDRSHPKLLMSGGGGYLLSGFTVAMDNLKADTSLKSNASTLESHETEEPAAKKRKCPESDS

compound: c1cn2cc(-c3ccc4cn[nH]c4c3)nc(Nc3ccc(N4CCOCC4)cc3)c2n1 [entospletinib]; test: log2 fold change, soluble protein after heating vs DMSO (PISA); higher = thermal stabilisation; K562 cells, 10 uM, 30 min; active = over 0.2 and 3.5 SD of the protein, either way, in both replicates (recomputed)
How it was run: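 Soluble protein was quantified by TMTpro 16plex LC-MS/MS after channel sums were equalised. It was obtained as the supernatant after 21,000xg for 90 min from pooled aliquots of K562 cells (2×10^6 cells/mL, 10 μM compound, 30 min) heated for 3 min across 48°C-58°C and extracted in PBS with 0.5% NP-40 at 4°C. Thermal stability values are relative to control samples and come from duplicates. They are given as log2 fold changes.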

log2 fold change, inactive:
TOR4A (UniProt Q9NXH8) -0.015
TRIM33 (UniProt Q9UPN9) 0.185
TOP2B (UniProt Q02880) 0.192
TPM1 isoform 4 (UniProt P09493) -0.011
TOR1AIP2 (UniProt Q9H496) -0.134
TRAF2 (UniProt Q12933) 0.013
TRIP11 (UniProt Q15643) 0.012
TRAF4 (UniProt Q9BUZ4) 0.106
TOR2A (UniProt Q5JU69) 0.011
TP53RK (UniProt Q96S44) 0.011
TOR1B (UniProt O14657) -0.03
TRMT1 (UniProt Q9NXH9) -0.036
TRUB1 (UniProt Q8WWH5) -0.016
TOR1AIP1 isoform 3 (UniProt Q5JTV8) 0.002
TOMM22 (UniProt Q9NS69) 0.011
TOLLIP (UniProt Q9H0E2) -0.09
TOP1 (UniProt P11387) -0.115
TSC22D4 (UniProt Q9Y3Q8) -0.012
TRIP6 (UniProt Q15654) 0.018
TOP3B (UniProt O95985) 0.068
TPP2 (UniProt P29144) 0.021
TRMU (UniProt O75648) -0.044
TRMT6 (UniProt Q9UJA5) 0.138

2 entries picked at random from those above, as already listed:
log2 fold change, inactive:
TPP2 (UniProt P29144) 0.021
TOMM22 (UniProt Q9NS69) 0.011
